# From paper PMC7819943, “Rice protein-binding microarrays: a tool to detect cis-acting elements near promoter regions in rice”
# Amino acid sequences for entries named in this document (tags omitted).
# UniProt Q0JBA9, entry or part of it: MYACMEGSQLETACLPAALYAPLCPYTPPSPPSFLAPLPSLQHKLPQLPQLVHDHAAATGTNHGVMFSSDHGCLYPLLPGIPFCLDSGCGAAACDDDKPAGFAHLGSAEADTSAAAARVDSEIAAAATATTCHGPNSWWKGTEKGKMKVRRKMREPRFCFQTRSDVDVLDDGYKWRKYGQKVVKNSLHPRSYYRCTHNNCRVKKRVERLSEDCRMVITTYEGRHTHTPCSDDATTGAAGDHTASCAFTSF
# This is one part of the list.
# Molecular target: OsWRKY34 (Oryza sativa, UniProt Q0JBA9 1-250)
# Assay: protein-binding microarray (RPBM); PBS, 2% BSA, 51.3 ng/ul salmon testes DNA, 50 uM zinc acetate, 200 nM TF, 25 C, 1 h; high values mean tight binding
# Conditions: protein: recombinant; tags: N-terminal polyhistidine and DsRed monomer fusion (pET32a); label: CyDye5-dUTP incorporated in the synthesized complementary strand; 3' TTTTT single-stranded linker to array surface; dsDNA, one strand shown
# In short: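 A custom Agilent array was converted to double-stranded form by primer extension with Cy5-dUTP and blocked with 2% BSA. Protein at 200 nM in PBS with 2% BSA, salmon testes DNA and 50 µM zinc acetate was applied for 1 h at 25 °C, followed by washing. The proteins were polyhistidine–DsRed N-terminal fusions of transcription factors, expressed in E. coli BL21-CodonPlus and Ni–NTA-purified. The binding signal is per-feature fluorescence intensity (arbitrary units) from an Axon 4000B scanner.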
row,Sequence,binding signal
1,TCGGTTTCATACGTGGGGTCTGTTGGTGGAGGTGTTGCCACGGAGTCACCTAGTGCAG,9440 fluorescence intensity (a.u.)
2,TGTTATATATATATTGATGTTGGGTGAATCGACTTGACTCCGGAGTCACCTAGTGCAG,8090 fluorescence intensity (a.u.)
3,CCTAAATCGTATCTCGTTATCTAGTGTTAGTTTATAATTTCGGAGTCACCTAGTGCAG,9470 fluorescence intensity (a.u.)
4,TTGACTTTCGAGTTTCGACCAATATCGGTATATTCCGTTCCGGAGTCACCTAGTGCAG,9300 fluorescence intensity (a.u.)
5,GATCTTCTCTAGTTTCCCAATCAAATCCTCTGATGTCCAACGGAGTCACCTAGTGCAG,8820 fluorescence intensity (a.u.)
6,CCCAACATCTCAATGACTTTCTCTCGTCTCATCTTCTTCCCGGAGTCACCTAGTGCAG,8590 fluorescence intensity (a.u.)
7,GGGTCCGGGTGTGTGGGGTGGGGAAGCGAGGCGAAACCCGCGGAGTCACCTAGTGCAG,9320 fluorescence intensity (a.u.)
8,GACCCATGGCTCGCCGCGCACGGTGACCTCTCCCACGTCTCGGAGTCACCTAGTGCAG,8340 fluorescence intensity (a.u.)
9,ACATCCGATTCCGCACTGCTGTGCTGCCCAATTCCTCCACCGGAGTCACCTAGTGCAG,8100 fluorescence intensity (a.u.)
10,GATTTTATTTGATCTTTTTCTTTTTTTATCAATTCAAATTCGGAGTCACCTAGTGCAG,10000 fluorescence intensity (a.u.)
11,GTTTCTGTGCCTTTTTGCTCCATTTCATGGATTATTATGACGGAGTCACCTAGTGCAG,9540 fluorescence intensity (a.u.)
12,GTCGGTGTTGCGCTTTGCCCTTGTACACGTGCCGTACTAGCGGAGTCACCTAGTGCAG,10400 fluorescence intensity (a.u.)
13,TGGTGATCCATGTTTTATATTCTGCATTACTCTTAATTTGCGGAGTCACCTAGTGCAG,8730 fluorescence intensity (a.u.)
14,TCCCCAACCACCTTCCCCGCCGCCCTCGCGCTTCCGGCATCGGAGTCACCTAGTGCAG,8100 fluorescence intensity (a.u.)
15,TACACATATATACATCTCTTTGCATATTTATATTCTTGTCCGGAGTCACCTAGTGCAG,9210 fluorescence intensity (a.u.)
16,TTACCTGCTCTCCACCAACCATTCTTTCCATGCATTCGTTCGGAGTCACCTAGTGCAG,11500 fluorescence intensity (a.u.)
17,TGCGGCCGCGCCCATCCCGCCAGTTCAGTCACCAACCCACCGGAGTCACCTAGTGCAG,8170 fluorescence intensity (a.u.)
18,TGTGTTCAACGTTTTTGGTGGTATGTCGCTATAGCATTTCCGGAGTCACCTAGTGCAG,8300 fluorescence intensity (a.u.)
19,CATTTTCTCCAGGCCCATTAAGCCCATAGGTCATCGTATCCGGAGTCACCTAGTGCAG,8680 fluorescence intensity (a.u.)
20,TCTTAGTATCCTTGGTTGTTGGATTTTTAGTTTGCTTTATCGGAGTCACCTAGTGCAG,9350 fluorescence intensity (a.u.)
21,TATGTGATTTCTCTTTCATATGCTACACATTTTTTTTCAACGGAGTCACCTAGTGCAG,10300 fluorescence intensity (a.u.)
22,CCTAGCTGCACAAGCTTAACTTCTAGTTTTTGTTTATGTTCGGAGTCACCTAGTGCAG,9210 fluorescence intensity (a.u.)
23,TCGCGCTCACCACGATGGACTTTTCCTAGAGAGGGATCTACGGAGTCACCTAGTGCAG,8650 fluorescence intensity (a.u.)

# Looked up one by one from the entries so far, two records:
row,Sequence,binding signal
11,GTTTCTGTGCCTTTTTGCTCCATTTCATGGATTATTATGACGGAGTCACCTAGTGCAG,9540 fluorescence intensity (a.u.)
3,CCTAAATCGTATCTCGTTATCTAGTGTTAGTTTATAATTTCGGAGTCACCTAGTGCAG,9470 fluorescence intensity (a.u.)
